In US12213485B2, “Synergistic methods of using benzoxaborole compounds and preservative gases as an antimicrobial for crops” (AGROFRESH INC., priority 2016, dated 2025):
For at least one compound, name, drawing or mass did not settle the structure.

Key:
[1] = tested on: Penicillium expansum (PENIEX); assay: In vitro fungal growth on inoculated agar plates, benzoxaborole and CO2 chamber treatment; type: cell-based
Source text: (§1) The following experiments were used to determine synergy between benzoxaborole Compounds A, B, and/or C and preservative gases, such as carbon dioxide (CO2) and sulfur dioxide (SO2). Specific rates or any other unique conditions are noted within the corresponding results tables. Each experiment comprised an air-tight 36 liter (L) chamber (Fisher Scientific, P/N: 08-642-23C), fitted with a bulkhead septum port (Swagelok, P/N: SS-400-61, Solon, OH) used for treatment delivery, as well as for monitoring (using needle extraction) carbon dioxide (CO2), sulfur dioxide (SO2), oxygen (O2) or other headspace samples. A variable speed fan (Thermaltake, Mobile Fan II, P/N: A1888, Taipei City, Taiwan) set to low was also used to circulate the headspace atmosphere.
(§2) In vitro and in vivo experiments were performed concurrently in triple replicates (i.e., triplicate) unless otherwise noted. For in vitro experiments, a single 6-well microtiter plate or three, 10-cm petri plates each containing half strength Potato Dextrose Agar were prepared. Each well or plate was inoculated with 1 microliter (μL) of 1×10^5 spores/ml of the appropriate pathogenic spore suspension (e.g., Botrytis cinerea, BOTRCI; Penicillium expansum, PENIEX; Mucor piriformis, MUCOPI; Fusarium sambucinum FUSASA; or Aspergillus brasiliensis, ASPEBR). The inoculated microtiter or petri plates were then sealed with a breathable film (AeraSeal; P/N: B-100, Excel Scientific, Victorville, CA).
(§3) For treatment, the inoculated agar plates and clamshells containing fruits (e.g., strawberries and grapes) were placed inside a 36 L experimental chamber unit, which was then sealed prior to commencement of compound treatments. The chamber remained sealed throughout the duration of the experiment except for addition of treatment to the chamber, and post-treatment ventilation.
(§4) Benzoxaborole Compound A or Compound B was dissolved in acetone and dispensed onto a 60 mm Whatman #1 filter paper disk using a pipette. The acetone was permitted to evaporate for five minutes before the disk was placed on a watch glass in each chamber.
(§5) A 12% CO2 headspace treatment was then established in the chamber by permitting 10 grams (g) of crushed dry ice placed in a weigh boat in the chamber to evaporate in the sealed chamber. However, the bulkhead port of the chamber was loosened to permit the release of internal pressure. Optionally, a fan was used during the initial hours of treatment (i.e., up to about 6 hours of treatment) to ensure uniform treatment exposure of fruits and plates.
(§6) Untreated controls and CO2 treated chambers contained an acetone-treated disk with similar evaporation for five minutes. CO2 and O2 levels in the chamber were monitored using a handheld gas detector (Dansensor Checkpoint II; P/N 600111, Ringsted, Denmark). Temperature and relative humidity were also monitored within the chamber using data loggers (Onset HOBO; P/N U12-013, Bourne, MA).
(§7) The chamber for all in vitro and in vivo experiments was held at room temperature (i.e., from about 21° C. to about 23° C.) typically for about 3.5 days (i.e., about 84 hours) of treatment exposure. Chambers were then vented. After an additional 2-3 days with the chamber at room temperature, post-treatment radial growth (in mm) of each in vitro pathogen (see Examples 1-7, Tables 1-7) was measured on the inoculated plates using electronic calipers (Mitutoyo, P/N: CD-6-CX, Aurora, IL). In addition, the point of inoculation on fruits was assessed for indication of in vivo disease incidence (e.g., yes or no) and severity of disease incidence (see Examples 8-16, Tables 8-16). Disease severity was rated on a scale ranging from 0 to 4, where “0” indicated no disease severity, “1” indicated minimal disease severity, “2” indicated medium disease severity, “3” indicated high disease severity, and “4” indicated exceptionally high disease severity. […]

[2] = tested on: Mucor piriformis (MUCOPI); assay: as above; type: cell-based; conditions: Table 3, compound 0.14 mg/L + 12% CO2, by Colby calculation
Source text: as §1, §2, §3, §4, §5, §6, §7

[3] = tested on: Botrytis cinerea (BOTRCI); assay: as above; type: cell-based
Source text: as §1, §2, §3, §4, §5, §6, §7

[4] = tested on: Aspergillus brasiliensis (ASPEBR); assay: as above; type: cell-based; conditions: Table 5, compound 0.14 mg/L + 12% CO2, by Colby calculation
Source text: as §1, §2, §3, §4, §5, §6, §7

[5] = tested on: Fusarium sambucinum (FUSASA); assay: as above; type: cell-based; conditions: Table 5, compound 0.14 mg/L + 12% CO2, by Colby calculation
Source text: as §1, §2, §3, §4, §5, §6, §7

[6] = tested on: Penicillium expansum (PENIEX) on table grapes; assay: In vivo disease severity on wound-inoculated table grapes, benzoxaborole and CO2 chamber treatment; conditions: Table 16, compound 0.035 mg/L + 12% CO2, by Colby calculation
Source text: as §1, with “A variable speed fan (Thermaltake, Mobile Fan II, P/N: A1888, Taipei City, Taiwan) set to low was also used to circulate the headspace atmosphere.” left out
as §6
(§8) The chamber for all in vitro and in vivo experiments was held at room temperature (i.e., from about 21° C. to about 23° C.) typically for about 3.5 days (i.e., about 84 hours) of treatment exposure. […] In addition, the point of inoculation on fruits was assessed for indication of in vivo disease incidence (e.g., yes or no) and severity of disease incidence (see Examples 8-16, Tables 8-16). […]

[7] = tested on: Botrytis cinerea (BOTRCI) on table grapes; assay: as above; conditions: Table 15, compound 0.035 mg/L + 12% CO2, by Colby calculation
Source text: as §1, with “A variable speed fan (Thermaltake, Mobile Fan II, P/N: A1888, Taipei City, Taiwan) set to low was also used to circulate the headspace atmosphere.” left out
as §6, §8

[8] = tested on: Mucor piriformis (MUCOPI) on strawberries; assay: In vivo disease severity on wound-inoculated strawberries, benzoxaborole and CO2 chamber treatment; conditions: Table 10, compound 0.14 mg/L + 12% CO2, by Colby calculation
Source text: as §1
(§9) For in vivo experiments, eight strawberry fruits per repetition were surface sterilized with a 70% ethanol solution. After sterilization, the strawberries were rinsed twice with deionized water. Each strawberry fruit was wounded using a T15 screwdriver tip to a uniform depth of eight mm (8 mm). Each fruit wound was inoculated with 20 μL of 1×10^5 spores/ml pathogen spore suspension of B. cinerea or M. piriformis. The strawberries were then placed with the stem facing downwards inside a 1-pound strawberry clamshell.
as §3, §4, §5, §6, §7

[9] = tested on: Botrytis cinerea (BOTRCI) on strawberries; assay: as above
Source text: as §1, §9, §3, §4, §5, §6, §7

[10] = Table 1, compound 0.14 mg/L + 12% CO2, by Colby calculation
[11] = Table 4, compound 0.14 mg/L + 12% CO2, by Colby calculation
[12] = Table 5, compound 0.14 mg/L + 12% CO2, by Colby calculation
[13] = Table 11, compound 0.14 mg/L + 12% CO2, by Colby calculation
[14] = Table 12, compound 0.14 mg/L + 12% CO2, by Colby calculation

Measured: Outcome

OB1OCc2cc(F)ccc21 [Compound A]
Synergistic: [1]; [10] | [1]; Table 2, compound 0.14 mg/L + 12% CO2, by Colby calculation | [1]; [11] | [1]; [12] | [1]; Table 7, compound 0.035 mg/L + 12% CO2, by Colby calculation | [2] | [3]; [10] | [3]; Table 3, compound 0.14 mg/L + 12% CO2, by Colby calculation | [3]; [11] | [3]; [12] | [3]; Table 6, compound 0.14 mg/L + 12% CO2, by Colby calculation | [4] | [5] | [6] | [7] | [8] | [9]; Table 8, compound 0.14 mg/L + 12% CO2, by Colby calculation | [9]; Table 9, compound 0.14 mg/L + 12% CO2, by Colby calculation | [9]; [13] | [9]; [14] | [9]; Table 13, compound 0.14 mg/L + 12% CO2, by Colby calculation | [9]; Table 14, compound 0.0044 mg/L + 12% CO2, by Colby calculation | [9]; Table 14, compound 0.0088 mg/L + 12% CO2, by Colby calculation

Fc1ccc2c(c1)COB2OCCOB1OCc2cc(F)ccc21 [Compound B]
Synergistic: [1]; [12] | [3]; [12] | [4] | [5] | [9]; [13] | [9]; [14]
